{"source": "PubChem BioAssay AID504834", "about": "(National Center for Advancing Translational Sciences (NCATS), 2011)", "note": "The campaign covered roughly 320,000 compounds. About 22,000 (6.9%) were called active. Inconclusive means that the source gave no clear call. Such entries were picked first, then a sample of the others. The call rests on the fitted dose curve; in most records, active means well fitted inhibition curve with a large enough effect; inconclusive means small, poorly fitted or top-dose-only effect, or another doubt; inactive means no such curve, though single readings can be large or run the other way. Potencies of inconclusive entries are doubtful fits and often do not repeat. Potency means the concentration at half of the fitted maximal effect."}
{"test": "Primary qHTS for delayed death inhibitors of the malarial parasite plastid, 96 hour incubation", "conditions": "P. falciparum luciferase reporter growth; series mostly up to 28.7 µM", "procedure,_shortened": "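Cell-based qHTS: luciferase-tagged P. falciparum in erythrocytes (2% hematocrit, 0.05% parasitemia final) incubated with compounds for 96 hours, 37 C, 5% CO2; luciferase detection reagent then added and luminescence measured.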"}
{"smiles": "CCN(C(=O)Cc1c(C(=O)O)n(CC)c2ccccc12)c1cccc(C(F)(F)F)c1", "Potency": "inactive"}
{"smiles": "OC1(C#CCN2CCCC2)CCCCC1", "Potency": "inconclusive: 2.62 µM [inhibitor, full curve, poor fit]"}
{"smiles": "O=S(=O)(c1ccccc1)N1CCN(c2ncnc3sc(-c4ccccc4)cc23)CC1", "Potency": "inconclusive: 13.1 µM [inhibitor, single point]"}
{"smiles": "Cc1cc2c(ncn2Cc2ccccc2)c([N+](=O)[O-])c1C", "Potency": "inconclusive: 0.0828 µM [inhibitor, full curve, poor fit]"}
{"smiles": "CCCCCc1ccc(OCCC[n+]2ccccc2)c(CCCCC)c1", "Potency": "inconclusive: 1.47 µM [inhibitor, full curve]"}
{"smiles": "CCN(CC)S(=O)(=O)c1ccc(N2CCOCC2)c(NC(=O)CNCCc2ccccc2)c1", "Potency": "inconclusive: 2.33 µM [inhibitor, full curve]"}
{"smiles": "Cc1cc(=O)oc2c3c(cc(OCC(=O)N[C@@H](Cc4ccccc4)C(=O)O)c12)OC(C)(C)CC3", "Potency": "inconclusive: 18.5 µM [inhibitor, single point]"}
{"smiles": "CC(C)NCC(O)c1ccc(NS(C)(=O)=O)cc1", "note": "(stereo not drawn)", "Potency": "inconclusive: 16.9 µM [inhibitor, single point]"}
{"smiles": "C[n+]1cccc(C2C(C#N)=C(N)Oc3c2ccc2ccccc32)c1", "note": "(stereo not drawn)", "Potency": "inconclusive: 0.329 µM [inhibitor, partial curve, poor fit]"}
{"smiles": "Cc1ccc(C(NC(=O)N2CCCC2)C(Cl)Cl)cc1F", "note": "(stereo not drawn)", "Potency": "inconclusive: 10.4 µM [inhibitor, partial curve, poor fit]"}
{"smiles": "O=c1c2ccccc2nc2ccc(N3CCOCC3)nn12", "Potency": "inconclusive: 13.1 µM [inhibitor, partial curve, poor fit]"}
{"smiles": "O=C(Nc1ccccn1)c1ccc(Cl)c(S(=O)(=O)N2CCOCC2)c1", "Potency": "inconclusive: 18.5 µM [inhibitor, single point]"}
{"smiles": "CC(C)CN(C(=O)CSc1nc2ccccc2o1)c1c(N)n(Cc2ccccc2)c(=O)[nH]c1=O", "Potency": "inconclusive: 18.5 µM [inhibitor, single point]"}
{"smiles": "CC(=O)c1ccc(N2CCN(C(=O)Cn3cnc(S(=O)(=O)N4CCCCC4)c3)CC2)cc1", "Potency": "inconclusive: 16.5 µM [inhibitor, single point]"}
{"smiles": "Cc1c(CCC(=O)O)c(=O)oc2cc3occ(-c4ccc(Br)cc4)c3cc12", "Potency": "inconclusive: 10.4 µM [inhibitor, single point]"}
{"smiles": "C=COCCNC(=S)Nc1cccc(Cl)c1", "Potency": "inactive"}
{"smiles": "CN(CCc1ccccc1)C(=O)CCc1nnc(Cc2ccc3c(c2)OCO3)o1", "Potency": "inconclusive: 14.7 µM [inhibitor, partial curve, poor fit]"}
{"smiles": "COc1cc(C(=O)NCC(c2cccnc2)N2CCN(c3ccc(F)cc3)CC2)cc(OC)c1OC", "note": "(stereo not drawn)", "Potency": "inconclusive: 4.15 µM [inhibitor, partial curve, poor fit]"}
{"smiles": "O=C(Nc1nc2ccc(F)cc2s1)C1CCN(S(=O)(=O)c2cc([N+](=O)[O-])ccc2Cl)CC1", "Potency": "inconclusive: 4.65 µM [inhibitor, partial curve, poor fit]"}
{"smiles": "COc1cc(OC)c(C(=O)Nc2ccc(S(=O)(=O)N3CCCCC3)cc2)cc1OC", "Potency": "active: 14.7 µM"}
{"smiles": "c1ccc(-n2cnc3cc(NCc4ccco4)ccc32)cc1", "Potency": "inactive"}
{"smiles": "CCC(=O)Nc1c(OC(=O)CC)ccc2c(C)cc(=O)oc12", "Potency": "active: 3.7 µM"}
{"smiles": "COc1ccc(C2=NN(CC(=O)Nc3cc(C)ccc3C)C(=O)CC2)cc1", "Potency": "inconclusive: 18.5 µM [inhibitor, single point]"}
{"smiles": "Nc1ncc(P(=S)(N2CCOCC2)N2CCOCC2)s1", "Potency": "inactive"}
{"smiles": "COc1cc(/C=C2\\C(=O)ON=C2c2ccccc2)cc(OC)c1OC", "Potency": "inconclusive: 18.5 µM [inhibitor, single point]"}
{"smiles": "CC(NC(=O)Nc1ccccn1)N1C(=O)C2C3C=CC(C3)C2C1=O", "note": "(stereo not drawn)", "Potency": "inconclusive: 2.33 µM [inhibitor, full curve, poor fit]"}
{"smiles": "COc1ccc2nc(SCc3cccnc3)c(C#N)cc2c1", "Potency": "inconclusive: 0.928 µM [inhibitor, single point]"}
{"smiles": "O=C(NCCN1CCc2ccccc2C1)Nc1ccc(F)cc1", "Potency": "inactive"}
{"smiles": "Cc1ccc(C2(C)NC(=O)N(CC(=O)Nc3ccc(Cl)c(S(=O)(=O)N4CCCCC4)c3)C2=O)cc1", "note": "(stereo not drawn)", "Potency": "inconclusive: 5.22 µM [inhibitor, partial curve, poor fit]"}
{"smiles": "COc1ccc(C(=O)N2CCc3ccccc32)cc1S(=O)(=O)N1CCOCC1", "Potency": "inconclusive: 18.5 µM [inhibitor, single point]"}
{"smiles": "CCN(CC)CCC#CC(O)(c1ccccc1)C1CCCCC1", "note": "(stereo not drawn)", "Potency": "inconclusive: 11.7 µM [inhibitor, single point]"}
{"smiles": "COc1ccc2c(COC(=O)[C@@H]3CCCN3S(=O)(=O)c3ccc(Cl)cc3)cc(=O)oc2c1", "Potency": "inactive"}
{"smiles": "COc1ccc(CNc2nc3c(c(=O)n(Cc4ccc(Cl)cc4)c(=O)n3C)n2C)cc1", "Potency": "inconclusive: 18.5 µM [inhibitor, single point]"}
{"smiles": "Cc1cccc(C)c1NC(=O)CNCC(=O)N(C)C", "Potency": "inactive"}
{"smiles": "COc1ccc(CCNC(=O)CN2CCC(C)CC2)cc1OC", "Potency": "inconclusive: 18.5 µM [inhibitor, single point]"}
{"smiles": "O=C(c1cnn2c(C(F)F)cc(C3CC3)nc12)N1CCc2ccccc2C1", "Potency": "inactive"}
{"smiles": "CC(NC(=O)Cc1cccs1)c1ccc2c(c1)OCO2", "note": "(stereo not drawn)", "Potency": "inconclusive: 0.415 µM [inhibitor, full curve]"}
{"smiles": "COc1ccc2c(c1)OC[C@H]1[C@@H]2N2C(=O)CNC(=O)[C@@]2(C)[C@H]1c1ccccc1", "Potency": "inconclusive: 16.5 µM [inhibitor, single point]"}
{"smiles": "CC(=O)c1c(C)[nH]c(C(=O)OCC(=O)Nc2cccc(S(=O)(=O)N(C)C)c2)c1C", "Potency": "inconclusive: 3.7 µM [inhibitor, single point]"}
{"smiles": "Oc1ccc2ccccc2c1CNc1ccc(Br)cn1", "Potency": "inconclusive: 18.5 µM [inhibitor, single point]"}
{"smiles": "O=S1(=O)N=C(N/N=C/c2cccs2)c2ccccc21", "Potency": "active: 13.1 µM"}
{"smiles": "Cc1n[nH]c(C)c1CCc1nc2c3ccccc3nc(SCC(=O)Nc3ccccc3F)n2n1", "Potency": "inconclusive: 10.4 µM [inhibitor, single point]"}
{"smiles": "CC1(C)CC2(CCO1)C(Nc1ccccc1)=NC(=S)N2c1ccccc1", "note": "(stereo not drawn)", "Potency": "inconclusive: 3.29 µM [inhibitor, partial curve, poor fit]"}
{"smiles": "COc1cccc(N2C(=O)C3CCCN3C2c2ccc(F)cc2)c1", "note": "(stereo not drawn)", "Potency": "active: 10.4 µM"}
{"smiles": "COc1ccc(OC)c(-c2nc(C(=O)NCC3CCCO3)cc3c2[nH]c2ccccc23)c1", "note": "(stereo not drawn)", "Potency": "inconclusive: 2.94 µM [inhibitor, full curve, poor fit]"}
{"smiles": "CCN(CC)C(=O)CC(c1ccc(N(C)C)cc1)c1c(OC)cc(OC)c2c(-c3ccccc3)cc(=O)oc12", "note": "(stereo not drawn)", "Potency": "active: 2.08 µM"}
{"smiles": "COc1ccc(S(=O)(=O)N/N=C\\c2ccc3c(c2)OCO3)c(OC)c1", "Potency": "inconclusive: 10.4 µM [inhibitor, single point]"}
{"smiles": "CCC(=O)N(CCc1ccccc1)Cc1cc2cc(OC)ccc2[nH]c1=O", "Potency": "inactive"}
{"smiles": "CCOC(=O)C1CCCN(Cc2ccc(OC)c(OCc3ccccc3)c2)C1", "note": "(stereo not drawn)", "Potency": "inconclusive: 10.4 µM [inhibitor, single point]"}
{"smiles": "CN1CCN(S(=O)(=O)c2ccc(Br)s2)CC1", "Potency": "inactive"}
{"smiles": "Cc1ccc(S(=O)(=O)N2CCN(S(=O)(=O)N3CCOCC3)CC2)cc1C", "Potency": "inconclusive: 16.5 µM [inhibitor, single point]"}
{"smiles": "Cc1ccc(-c2cc(C(=O)N/N=C/c3c[nH]c4ccccc34)n[nH]2)o1", "Potency": "inactive"}
{"smiles": "O=C(OC1CCOC1=O)C1CCN(S(=O)(=O)c2ccc(Cl)c(C(F)(F)F)c2)CC1", "note": "(stereo not drawn)", "Potency": "inactive"}
{"smiles": "COc1ccccc1OCC(=O)N/N=C/c1c(O)ccc2ccccc12", "Potency": "inconclusive: 13.1 µM [inhibitor, single point]"}
{"smiles": "Cc1ccc(-c2c(C)n([O-])c3c([n+]2=O)CCCC3)cc1", "Potency": "inconclusive: 3.7 µM [inhibitor, full curve, poor fit]"}
{"smiles": "CCC(=O)N1CCc2cc(Br)cc(S(=O)(=O)N3CCC(C(=O)NC(C)(C)C)CC3)c21", "Potency": "inactive"}
{"smiles": "CC(C)CCOP(=O)(c1ccc(N(C)C)cc1)C(O)c1ccccc1", "note": "(stereo not drawn)", "Potency": "inconclusive: 13.1 µM [inhibitor, single point]"}
{"smiles": "CCC(C)(C(=O)NC1CCCC1)N(Cc1cccs1)C(=O)c1ccccn1", "note": "(stereo not drawn)", "Potency": "active: 2.94 µM"}
{"smiles": "COCCNC(=O)C1=C(N)C(C(=O)Nc2ccc(C)c(S(=O)(=O)N3CCCCC3)c2)SC1=Nc1ccc(C)cc1C", "note": "(stereo not drawn)", "Potency": "inconclusive: 4.65 µM [inhibitor, partial curve, poor fit]"}
{"smiles": "Cc1cc(N2CCC(C)CC2)nc(NCc2ccccc2)n1", "Potency": "active: 7.38 µM"}
{"smiles": "COc1cc(C#N)ccc1OC(=O)c1cccc(S(=O)(=O)N2CCN(C)CC2)c1", "Potency": "inactive"}
{"smiles": "COc1cc(/C=N/NC(=O)CCC(=O)NCc2ccccc2)cc(OC)c1OC", "Potency": "inconclusive: 18.5 µM [inhibitor, single point]"}
{"smiles": "CC(=O)c1ccc(S(=O)(=O)N2CCN(C(=O)/C=C/c3ccc4ccccc4n3)CC2)cc1", "Potency": "active: 5.22 µM"}
{"smiles": "Cc1nnc(SCc2ccon2)n1-c1ccccc1", "Potency": "inconclusive: 18.5 µM [inhibitor, single point]"}
{"smiles": "COc1cccc(CNC(=O)C2CCN(S(=O)(=O)c3cccc4nonc34)CC2)c1", "Potency": "inactive"}
{"smiles": "Cc1ccc(S(=O)(=O)N/N=c2\\sc3ccccc3n2C)cc1", "Potency": "inactive"}
{"smiles": "O=c1c2cc(NC(=S)N3CCCCC3)ccc2nc2n1CCCCC2", "Potency": "inconclusive: 18.5 µM [inhibitor, single point]"}
{"smiles": "Clc1cccc(C2CCN(Cc3nc(COc4ccccc4)no3)C2)c1", "note": "(stereo not drawn)", "Potency": "inconclusive: 13.1 µM [inhibitor, single point]"}
